## Screening data

Data taken from PubChem BioAssay AID655, deposited by NCATS (2007).

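Human T-cell leukemia Jurkat cells are exposed to compound for 16 h, then caspase 3/7 activity is measured by a luciferase light signal. Percent caspase activation scaled so DMSO is 0% and 100 µM tamoxifen is 100%; a higher value means stronger activation. Calls come from curve type, fit quality and efficacy: active needs a good complete curve or a good partial curve with high efficacy, inactive is a flat curve, and anything else is inconclusive.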

Values are in %. Common to all entries: at 92.2 µM (top of the series). All entries here are filed as inconclusive. Only part of the assay is shown, chiefly results filed as inconclusive.

compound	caspase-3 activation (%)
O=[N+]([O-])/C=C/c1ccccc1	-4.592
C=CC(=O)OCCOCCOC(=O)C=C	-4.681
CCCCC(CC)COC(=O)c1ccc(C(=O)OCC(CC)CCCC)c(C(=O)OCC(CC)CCCC)c1 (centres undefined)	35.94
Nc1ccccc1N	47.64
N#CC(Cl)(Cl)Cl	56.56
N=C1N=C(N)c2cc3ccccc3cc21	35.1
C(=NC1CCCCC1)=NC1CCCCC1	55.45
Nc1c(Br)cc([N+](=O)[O-])cc1[N+](=O)[O-]	70.85
Brc1ccc(Oc2cc(Br)c(Br)cc2Br)c(Br)c1	32.67
CCN(C(=O)N(CC)c1ccccc1)c1ccccc1	31.82
CCCCCCCCn1sccc1=O	-6.078
C=C1C(CCl)(CCl)C2(Cl)C(Cl)C(Cl)C1(Cl)C2(Cl)Cl (centres undefined)	68.46
CN(C)c1ccc(N=O)cc1	-1.857
Cc1ccc(N)c(N)c1	32.9
BrCC(Br)(Br)Br	60.15
O=Nc1ccc(Nc2ccccc2)cc1	-5.432
O=C1OC(=O)c2ccccc21	63.56
CN(C)c1ccc(C(=C2C=CC(=[N+](C)C)C=C2)c2ccccc2)cc1	-7.838
Cc1cc(Nc2ccc(O)cc2)ccc1N	-7.273
CC(C)(c1ccc(OCC2CO2)cc1)c1ccc(OCC2CO2)cc1 (centres undefined)	79.46

Once more, the final 2:

| compound | caspase-3 activation (%) |
|---|---|
| `Cc1cc(Nc2ccc(O)cc2)ccc1N` | -7.273 |
| `CC(C)(c1ccc(OCC2CO2)cc1)c1ccc(OCC2CO2)cc1` (centres undefined) | 79.46 |